Measurements as given in PMC5087660.
No constants are given. Whether binding was seen depends on the method and setting. Binding seen in cells or lysates may run through a third protein. Some entries that bind do so weakly or less than the wild type. Sequences can lack the tags named with a protein.

T1: STIM-YFP (Drosophila) (UniProt P83094)
T1 sequence: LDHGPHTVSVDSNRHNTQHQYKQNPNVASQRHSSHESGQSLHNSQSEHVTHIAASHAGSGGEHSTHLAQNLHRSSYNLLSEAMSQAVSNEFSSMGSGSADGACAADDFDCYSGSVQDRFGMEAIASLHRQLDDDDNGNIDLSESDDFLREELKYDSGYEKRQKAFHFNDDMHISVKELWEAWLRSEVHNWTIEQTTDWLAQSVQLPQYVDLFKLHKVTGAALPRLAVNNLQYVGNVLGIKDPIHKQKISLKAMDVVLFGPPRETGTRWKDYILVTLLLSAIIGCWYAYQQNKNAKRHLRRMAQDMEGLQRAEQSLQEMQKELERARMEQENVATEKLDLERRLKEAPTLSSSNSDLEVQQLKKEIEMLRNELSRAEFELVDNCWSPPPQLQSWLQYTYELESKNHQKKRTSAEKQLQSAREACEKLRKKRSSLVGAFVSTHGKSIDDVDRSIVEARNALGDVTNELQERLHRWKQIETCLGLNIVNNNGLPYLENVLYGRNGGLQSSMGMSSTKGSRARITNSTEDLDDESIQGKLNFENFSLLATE

T2: Orai-CFP (ectopically expressed dOrai-CFP+ transgene) (Drosophila) (UniProt Q9U6B8)
T2 sequence: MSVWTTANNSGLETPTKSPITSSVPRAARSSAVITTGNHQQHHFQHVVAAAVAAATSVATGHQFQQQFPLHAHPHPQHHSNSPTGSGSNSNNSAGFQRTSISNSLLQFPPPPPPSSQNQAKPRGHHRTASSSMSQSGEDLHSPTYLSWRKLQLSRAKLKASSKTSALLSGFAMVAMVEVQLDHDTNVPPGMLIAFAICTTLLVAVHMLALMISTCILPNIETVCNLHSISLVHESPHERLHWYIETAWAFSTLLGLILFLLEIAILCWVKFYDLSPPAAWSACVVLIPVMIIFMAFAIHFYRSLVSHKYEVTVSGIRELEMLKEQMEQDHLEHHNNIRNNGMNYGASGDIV


Experiments:
[1] = biological target: T1, STIM-YFP (Drosophila); assay: co-IP; anti-GFP antibody on Dynabeads, 18-20 h at 4°C; lysate in PBS pH 7.4 with 1% NP-40 and 5 mM EDTA; larval brains with or without thapsigargin (10 µM in Ca2+-free HBM, 10 min); for Orai-CFP with wild-type or mutant IP3R; western blot
[2] = biological target: T2, Orai-CFP (ectopically expressed dOrai-CFP+ transgene) (Drosophila); assay: as above

binding [1] | binding [2] | Binder
binds |  | Orai (endogenous, Drosophila) (protein, UniProt Q9U6B8 1-351) MSVWTTANNSGLETPTKSPITSSVPRAARSSAVITTGNHQQHHFQHVVAAAVAAATSVATGHQFQQQFPLHAHPHPQHHSNSPTGSGSNSNNSAGFQRTSISNSLLQFPPPPPPSSQNQAKPRGHHRTASSSMSQSGEDLHSPTYLSWRKLQLSRAKLKASSKTSALLSGFAMVAMVEVQLDHDTNVPPGMLIAFAICTTLLVAVHMLALMISTCILPNIETVCNLHSISLVHESPHERLHWYIETAWAFSTLLGLILFLLEIAILCWVKFYDLSPPAAWSACVVLIPVMIIFMAFAIHFYRSLVSHKYEVTVSGIRELEMLKEQMEQDHLEHHNNIRNNGMNYGASGDIV
 | binds | STIM (endogenous, Drosophila) (protein, UniProt P83094 24-570) LDHGPHTVSVDSNRHNTQHQYKQNPNVASQRHSSHESGQSLHNSQSEHVTHIAASHAGSGGEHSTHLAQNLHRSSYNLLSEAMSQAVSNEFSSMGSGSADGACAADDFDCYSGSVQDRFGMEAIASLHRQLDDDDNGNIDLSESDDFLREELKYDSGYEKRQKAFHFNDDMHISVKELWEAWLRSEVHNWTIEQTTDWLAQSVQLPQYVDLFKLHKVTGAALPRLAVNNLQYVGNVLGIKDPIHKQKISLKAMDVVLFGPPRETGTRWKDYILVTLLLSAIIGCWYAYQQNKNAKRHLRRMAQDMEGLQRAEQSLQEMQKELERARMEQENVATEKLDLERRLKEAPTLSSSNSDLEVQQLKKEIEMLRNELSRAEFELVDNCWSPPPQLQSWLQYTYELESKNHQKKRTSAEKQLQSAREACEKLRKKRSSLVGAFVSTHGKSIDDVDRSIVEARNALGDVTNELQERLHRWKQIETCLGLNIVNNNGLPYLENVLYGRNGGLQSSMGMSSTKGSRARITNSTEDLDDESIQGKLNFENFSLLATE
